Reference: paper PMC11790958, “Molecular mechanism of condensin I activation by KIF4A” (The EMBO Journal, 2024)
These are yes or no findings as the source states them, for the method shown. Some entries that bind do so weakly or less than the wild type.

Amino acid sequences for entries named in this document (tags omitted). A change or cut given only in a name is not applied to a line headed by its entry.
UniProt P38989: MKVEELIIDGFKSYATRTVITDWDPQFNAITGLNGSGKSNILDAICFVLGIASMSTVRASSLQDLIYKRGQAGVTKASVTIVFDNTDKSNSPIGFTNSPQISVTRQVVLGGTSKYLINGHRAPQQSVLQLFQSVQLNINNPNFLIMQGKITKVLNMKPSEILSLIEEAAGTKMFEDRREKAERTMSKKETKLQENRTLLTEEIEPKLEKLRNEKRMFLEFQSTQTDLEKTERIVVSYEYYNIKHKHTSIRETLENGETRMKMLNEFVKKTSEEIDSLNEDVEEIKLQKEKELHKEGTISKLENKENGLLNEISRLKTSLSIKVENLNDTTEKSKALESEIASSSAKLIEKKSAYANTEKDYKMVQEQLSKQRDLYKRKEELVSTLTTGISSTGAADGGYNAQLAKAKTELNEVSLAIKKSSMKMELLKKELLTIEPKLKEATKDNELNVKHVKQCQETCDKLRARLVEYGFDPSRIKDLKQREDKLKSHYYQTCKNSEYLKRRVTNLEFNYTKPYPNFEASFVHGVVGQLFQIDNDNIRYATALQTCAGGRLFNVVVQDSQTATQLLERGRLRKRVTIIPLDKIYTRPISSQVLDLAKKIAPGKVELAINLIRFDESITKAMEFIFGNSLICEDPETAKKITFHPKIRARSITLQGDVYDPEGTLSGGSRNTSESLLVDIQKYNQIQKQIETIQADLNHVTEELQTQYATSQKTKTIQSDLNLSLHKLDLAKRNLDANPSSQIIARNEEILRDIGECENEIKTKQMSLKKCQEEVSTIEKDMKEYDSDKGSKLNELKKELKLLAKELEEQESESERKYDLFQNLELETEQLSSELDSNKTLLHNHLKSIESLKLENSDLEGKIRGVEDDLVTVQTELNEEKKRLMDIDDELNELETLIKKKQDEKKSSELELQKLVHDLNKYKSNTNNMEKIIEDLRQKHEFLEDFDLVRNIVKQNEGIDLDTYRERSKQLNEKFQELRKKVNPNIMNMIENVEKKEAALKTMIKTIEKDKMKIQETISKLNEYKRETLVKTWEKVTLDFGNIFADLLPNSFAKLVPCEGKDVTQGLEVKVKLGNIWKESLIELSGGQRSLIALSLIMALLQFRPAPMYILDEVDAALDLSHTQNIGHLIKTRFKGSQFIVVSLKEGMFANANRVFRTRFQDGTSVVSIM

How the values were obtained:
Assay in all cases: fluorescence polarisation; 100 nM 5-FAM labelled peptide, protein or complex titrated; 20 mM HEPES pH 8, 150 mM KCl, 2.5 mM MgCl, 5% glycerol, 1 mM DTT; room temperature, 15 min; both purified
[1] = target: T1, 5-FAM-KIF4A WT(1206-1228) peptide (human)
T1 sequence (peptide, 5-FAM on the N-terminus): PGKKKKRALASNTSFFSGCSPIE

[2] = target: T2, 5-FAM NCAPD2-C(1376-1398) peptide (human)
T2 sequence (peptide, 5-FAM on the N-terminus): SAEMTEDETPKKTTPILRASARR

[3] = target: T3, 5-FAM Sgo1(503-523) peptide (S. cerevisiae)
T3 sequence (peptide, 5-FAM (label named; its end is not printed for this peptide)): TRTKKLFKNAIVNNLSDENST

[4] = target: T4, 5-FAM Lrs4(317-337) peptide (S. cerevisiae)
T4 sequence (peptide, 5-FAM on the N-terminus): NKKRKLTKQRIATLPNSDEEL

Row | Substance | binding [1] | binding [2] | binding [3] | binding [4]
1 | human condensin I tetramer lacking NCAPG (from UniProt O95347 1-1197; Q9NTJ3 1-1288; Q15003 1-741; Q15021 1-1401) (complex) | binds weakly | binds weakly |  | 
2 | yeast condensin tetramer lacking Ycg1 (from UniProt P38989 1-1170; Q12267 1-1418; P38170 1-754; Q06156 1-1176) (complex) |  |  | no binding | no binding
